Residue numbers refer to the chain shown, from its start. Results are given in words; binding and its absence hold for the method and conditions named. Binding seen in cells or lysates may run through a third protein. Some results given as binding are weak or reduced against the parent protein; the word gives no strength. Sequences can lack the tags named with a protein.
Experiments:
[1] = biological target: T1, HA-tagged RUNX1T1 E163K (human) (UniProt Q06455); assay: co-IP; validation of mass spectrometry hits by standard co-IP of HA-RUNX1T1 (WT or mutants) from HEK-293T lysate; PRMT5 and DBC1 found by blot
T1 sequence: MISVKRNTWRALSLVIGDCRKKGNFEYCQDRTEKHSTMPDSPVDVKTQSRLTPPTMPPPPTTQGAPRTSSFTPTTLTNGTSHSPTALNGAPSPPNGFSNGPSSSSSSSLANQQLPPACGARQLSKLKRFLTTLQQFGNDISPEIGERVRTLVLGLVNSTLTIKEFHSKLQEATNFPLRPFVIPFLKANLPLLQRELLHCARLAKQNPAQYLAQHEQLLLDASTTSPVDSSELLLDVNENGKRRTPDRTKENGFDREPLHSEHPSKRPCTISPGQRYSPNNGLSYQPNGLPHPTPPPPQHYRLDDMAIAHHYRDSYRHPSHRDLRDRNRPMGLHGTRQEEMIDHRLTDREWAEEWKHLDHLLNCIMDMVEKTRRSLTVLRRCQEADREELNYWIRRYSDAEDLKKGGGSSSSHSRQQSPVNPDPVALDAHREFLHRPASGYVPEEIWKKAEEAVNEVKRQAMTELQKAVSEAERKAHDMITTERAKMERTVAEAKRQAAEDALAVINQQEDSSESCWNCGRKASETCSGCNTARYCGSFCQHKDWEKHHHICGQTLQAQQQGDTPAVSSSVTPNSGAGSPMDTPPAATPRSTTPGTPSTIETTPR

The chains behind the UniProt entries cited, without tags or fusion partners.
UniProt O14744: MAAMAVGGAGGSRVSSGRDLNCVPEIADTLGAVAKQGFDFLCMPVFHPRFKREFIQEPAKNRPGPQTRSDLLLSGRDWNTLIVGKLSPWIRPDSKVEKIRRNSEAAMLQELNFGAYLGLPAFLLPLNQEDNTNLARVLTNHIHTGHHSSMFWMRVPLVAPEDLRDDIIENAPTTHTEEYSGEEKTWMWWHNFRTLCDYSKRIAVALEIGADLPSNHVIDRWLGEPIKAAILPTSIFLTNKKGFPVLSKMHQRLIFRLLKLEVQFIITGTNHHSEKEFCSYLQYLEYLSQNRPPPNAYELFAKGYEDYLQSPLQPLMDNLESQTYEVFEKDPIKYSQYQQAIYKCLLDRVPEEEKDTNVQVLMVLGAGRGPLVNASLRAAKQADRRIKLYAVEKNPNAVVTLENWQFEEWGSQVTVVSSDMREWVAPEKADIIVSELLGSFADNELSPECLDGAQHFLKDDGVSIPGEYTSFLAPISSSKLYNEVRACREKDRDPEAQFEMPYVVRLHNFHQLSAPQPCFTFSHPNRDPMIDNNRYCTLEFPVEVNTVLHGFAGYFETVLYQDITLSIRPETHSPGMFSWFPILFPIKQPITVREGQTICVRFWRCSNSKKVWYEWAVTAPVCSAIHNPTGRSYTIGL
UniProt Q99684: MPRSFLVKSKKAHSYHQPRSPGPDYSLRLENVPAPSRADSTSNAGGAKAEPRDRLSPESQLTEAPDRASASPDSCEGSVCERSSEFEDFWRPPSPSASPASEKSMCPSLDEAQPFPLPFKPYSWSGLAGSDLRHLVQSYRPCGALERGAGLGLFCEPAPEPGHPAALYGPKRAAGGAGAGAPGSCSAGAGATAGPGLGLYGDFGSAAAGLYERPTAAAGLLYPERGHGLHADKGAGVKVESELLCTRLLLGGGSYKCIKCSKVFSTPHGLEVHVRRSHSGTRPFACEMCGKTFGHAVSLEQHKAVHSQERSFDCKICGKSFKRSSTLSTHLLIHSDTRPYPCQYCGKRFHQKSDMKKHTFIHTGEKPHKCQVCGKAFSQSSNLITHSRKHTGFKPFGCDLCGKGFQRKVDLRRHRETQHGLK
UniProt Q13547: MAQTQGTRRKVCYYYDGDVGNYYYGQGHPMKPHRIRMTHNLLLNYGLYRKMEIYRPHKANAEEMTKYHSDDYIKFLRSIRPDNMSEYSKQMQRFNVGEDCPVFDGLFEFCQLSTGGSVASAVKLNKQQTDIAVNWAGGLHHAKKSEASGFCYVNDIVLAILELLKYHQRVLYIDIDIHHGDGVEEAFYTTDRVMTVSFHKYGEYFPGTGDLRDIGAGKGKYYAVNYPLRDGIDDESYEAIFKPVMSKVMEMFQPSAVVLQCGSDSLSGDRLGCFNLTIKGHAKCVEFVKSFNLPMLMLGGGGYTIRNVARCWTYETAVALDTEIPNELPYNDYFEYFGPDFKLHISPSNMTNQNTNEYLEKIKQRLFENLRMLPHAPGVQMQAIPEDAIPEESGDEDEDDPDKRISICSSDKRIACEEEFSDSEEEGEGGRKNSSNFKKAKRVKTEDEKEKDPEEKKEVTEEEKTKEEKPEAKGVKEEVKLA
UniProt O75376: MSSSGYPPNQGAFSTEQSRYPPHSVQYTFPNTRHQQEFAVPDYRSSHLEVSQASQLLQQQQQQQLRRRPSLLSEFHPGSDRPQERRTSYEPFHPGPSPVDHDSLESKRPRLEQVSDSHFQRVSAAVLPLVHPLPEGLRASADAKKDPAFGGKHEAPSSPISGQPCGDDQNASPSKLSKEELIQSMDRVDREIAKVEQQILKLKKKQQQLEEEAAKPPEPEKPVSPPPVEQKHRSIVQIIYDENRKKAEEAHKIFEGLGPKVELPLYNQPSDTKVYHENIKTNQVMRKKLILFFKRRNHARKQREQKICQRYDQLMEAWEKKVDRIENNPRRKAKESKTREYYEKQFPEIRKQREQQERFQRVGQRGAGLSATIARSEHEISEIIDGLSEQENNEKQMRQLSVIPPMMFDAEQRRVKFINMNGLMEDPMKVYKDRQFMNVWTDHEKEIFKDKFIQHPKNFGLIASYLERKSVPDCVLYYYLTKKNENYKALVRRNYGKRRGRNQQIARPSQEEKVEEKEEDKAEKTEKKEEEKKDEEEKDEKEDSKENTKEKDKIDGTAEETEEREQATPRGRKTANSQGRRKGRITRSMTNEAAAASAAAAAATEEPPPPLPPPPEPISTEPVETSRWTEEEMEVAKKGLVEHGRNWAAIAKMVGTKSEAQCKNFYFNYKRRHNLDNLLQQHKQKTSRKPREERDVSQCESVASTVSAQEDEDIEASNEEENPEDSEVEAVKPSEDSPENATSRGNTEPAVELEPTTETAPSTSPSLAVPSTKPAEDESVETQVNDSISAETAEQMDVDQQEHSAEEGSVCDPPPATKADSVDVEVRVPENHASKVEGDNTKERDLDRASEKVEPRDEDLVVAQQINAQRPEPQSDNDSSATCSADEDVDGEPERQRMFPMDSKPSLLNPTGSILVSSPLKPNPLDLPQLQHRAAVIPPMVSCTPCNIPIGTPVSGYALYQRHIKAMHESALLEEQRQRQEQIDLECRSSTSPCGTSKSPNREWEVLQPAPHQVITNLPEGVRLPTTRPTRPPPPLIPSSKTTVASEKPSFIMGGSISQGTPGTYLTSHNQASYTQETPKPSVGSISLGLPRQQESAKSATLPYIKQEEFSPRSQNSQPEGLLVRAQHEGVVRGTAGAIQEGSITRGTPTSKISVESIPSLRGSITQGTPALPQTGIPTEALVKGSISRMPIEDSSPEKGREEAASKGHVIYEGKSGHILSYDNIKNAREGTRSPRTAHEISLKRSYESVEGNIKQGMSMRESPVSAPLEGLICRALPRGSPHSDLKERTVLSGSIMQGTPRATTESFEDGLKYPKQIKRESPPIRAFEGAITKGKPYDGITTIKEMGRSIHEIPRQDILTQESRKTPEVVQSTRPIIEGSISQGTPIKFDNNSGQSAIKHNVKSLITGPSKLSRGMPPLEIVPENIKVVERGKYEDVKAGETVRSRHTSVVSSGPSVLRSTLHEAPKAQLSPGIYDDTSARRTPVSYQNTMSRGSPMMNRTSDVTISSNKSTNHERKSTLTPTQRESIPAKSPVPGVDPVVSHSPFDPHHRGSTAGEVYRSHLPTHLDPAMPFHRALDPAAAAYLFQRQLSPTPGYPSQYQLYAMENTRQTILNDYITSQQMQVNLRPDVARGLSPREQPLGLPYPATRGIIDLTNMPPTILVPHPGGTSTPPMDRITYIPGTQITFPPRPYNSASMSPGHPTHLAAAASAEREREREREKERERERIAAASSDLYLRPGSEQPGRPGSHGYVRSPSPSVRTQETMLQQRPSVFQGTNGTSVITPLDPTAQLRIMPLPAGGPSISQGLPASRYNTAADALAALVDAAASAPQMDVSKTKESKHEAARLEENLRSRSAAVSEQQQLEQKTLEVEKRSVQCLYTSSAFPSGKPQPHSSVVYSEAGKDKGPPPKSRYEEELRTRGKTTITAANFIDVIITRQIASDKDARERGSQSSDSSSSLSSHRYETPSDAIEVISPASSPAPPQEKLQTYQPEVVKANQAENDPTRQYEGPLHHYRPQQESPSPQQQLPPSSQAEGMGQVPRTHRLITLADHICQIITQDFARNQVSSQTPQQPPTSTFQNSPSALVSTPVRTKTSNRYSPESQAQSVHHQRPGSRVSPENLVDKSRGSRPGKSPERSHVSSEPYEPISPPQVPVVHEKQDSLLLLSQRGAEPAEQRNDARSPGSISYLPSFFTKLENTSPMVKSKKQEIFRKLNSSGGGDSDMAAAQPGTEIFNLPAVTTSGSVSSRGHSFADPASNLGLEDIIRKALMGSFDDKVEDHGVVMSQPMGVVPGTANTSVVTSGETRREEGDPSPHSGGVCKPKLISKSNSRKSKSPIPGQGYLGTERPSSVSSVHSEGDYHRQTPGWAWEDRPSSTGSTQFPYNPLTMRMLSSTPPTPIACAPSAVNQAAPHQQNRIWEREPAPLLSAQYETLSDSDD

[2] = biological target: T2, HA-tagged RUNX1T1 E146K (human) (UniProt Q06455); assay: as above
T2 sequence: T1 sequence with E146K, K163E

[3] = biological target: T1, HA-tagged RUNX1T1 E163K (human); assay: co-IP; HEK-293T cells expressing HA-RUNX1T1 (WT or mutated) transfected with FLAG-tagged partner; lysis in 25 mM Tris-HCl pH 8, 150 mM NaCl, 1% NP-40; precipitated 1.5 h on anti-HA affinity resin, 4 washes; blot
[4] = biological target: T2, HA-tagged RUNX1T1 E146K (human); assay: as above
[5] = biological target: T1, HA-tagged RUNX1T1 E163K (human); assay: co-IP; data not shown; HA-tagged RUNX1T1 (WT or mutants) and FLAG-tagged putative interactors co-expressed in HEK-293 cells and co-immunoprecipitated
[6] = biological target: T3, HA-tagged RUNX1T1, wild type (human) (UniProt Q06455); assay: as above
T3 sequence: T1 sequence with K163E

[7] = biological target: T2, HA-tagged RUNX1T1 E146K (human); assay: as above

| binding [1] | binding [2] | binding [3] | binding [4] | binding [5] | binding [6] | binding [7] | Substance |
| --- | --- | --- | --- | --- | --- | --- | --- |
| binds | binds | – | – | – | – | – | arginine methyltransferase PRMT5 (from UniProt O14744 1-637) |
| – | – | binds | binds | – | – | – | FLAG-tagged GFI-1 (from UniProt Q99684 1-422) |
| – | – | – | – | binds | binds | binds | FLAG-tagged HDAC1 (from UniProt Q13547 1-482) |
| – | – | – | – | binds | binds | binds | FLAG-tagged N-CoR (from UniProt O75376 1-2440) |

— publication PMC11589140
